Data from patent US20150132277A1.
Numbering of substitutions follows the chain as printed. Numbers in names are those of the source. Results are given in words; binding and its absence hold for the method and conditions named. For part of these data: In cells and extracts the contact can be indirect. Some results given as binding are weak or reduced against the parent protein; the word gives no strength. For part of these data: Sequences can lack the tags named with a protein.

Protein sequences, listed by entry. Tags and fused reporters are not part of them.
UniProt P25025: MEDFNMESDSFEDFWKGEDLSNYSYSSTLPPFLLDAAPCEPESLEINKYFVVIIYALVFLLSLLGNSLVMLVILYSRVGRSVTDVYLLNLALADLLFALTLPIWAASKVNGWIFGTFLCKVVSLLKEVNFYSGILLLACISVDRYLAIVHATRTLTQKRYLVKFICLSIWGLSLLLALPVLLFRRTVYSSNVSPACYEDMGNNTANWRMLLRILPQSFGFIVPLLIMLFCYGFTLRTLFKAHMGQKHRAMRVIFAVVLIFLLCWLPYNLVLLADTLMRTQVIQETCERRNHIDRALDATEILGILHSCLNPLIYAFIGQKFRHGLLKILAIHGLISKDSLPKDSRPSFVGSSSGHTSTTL

Columns and labels:
[1] = biological target: T1, biotinylated VE-EC1 (VE-EC1 with a C-terminal cysteine coupled to Maleimide-PEG2-Biotin) (Homo sapiens (Human)) (UniProt P33151); assay: pull-down on Strep-Tactin beads with VE-EC1-biotin as bait, anti-6xHis Western blot
T1 sequence (chain, C-terminal Cys biotinylated with Maleimide-PEG2-Biotin): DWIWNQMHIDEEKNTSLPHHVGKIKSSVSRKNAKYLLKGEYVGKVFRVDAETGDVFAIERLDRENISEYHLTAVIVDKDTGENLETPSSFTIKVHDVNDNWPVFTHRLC

[2] = biological target: T1, biotinylated VE-EC1 (VE-EC1 with a C-terminal cysteine coupled to Maleimide-PEG2-Biotin) (Homo sapiens (Human)); assay: pull-down with VE-EC1-biotin on Strep-Tactin beads, 100 nM protein, anti-6xHis Western blot; T2-WRS is the weaker reference
[3] = biological target: T2, CXCR-1 on stably expressing HEK 293 cells (UniProt P25024); assay: His6-tagged protein on CXCR-1 expressing HEK 293 cells, anti-His6 immunoblot of lysates
T2 sequence (looked up): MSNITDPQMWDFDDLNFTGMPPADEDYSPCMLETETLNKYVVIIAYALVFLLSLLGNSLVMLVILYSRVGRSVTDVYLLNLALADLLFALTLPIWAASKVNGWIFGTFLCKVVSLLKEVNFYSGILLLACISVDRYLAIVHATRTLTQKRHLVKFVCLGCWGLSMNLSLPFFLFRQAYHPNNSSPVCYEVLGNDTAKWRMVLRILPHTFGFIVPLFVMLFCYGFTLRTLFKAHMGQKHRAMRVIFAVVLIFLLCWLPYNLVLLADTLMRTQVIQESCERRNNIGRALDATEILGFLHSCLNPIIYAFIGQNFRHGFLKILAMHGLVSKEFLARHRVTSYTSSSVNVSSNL

[4] = biological target: CXCR-2 on stably expressing HEK 293 cells (UniProt P25025); assay: His6-tagged protein on CXCR-2 expressing HEK 293 cells, anti-His6 immunoblot of lysates
[5] = biological target: T2, CXCR-1 on stably expressing HEK 293 cells; assay: binding of fixed WT mini-YRS to CXCR1-293 cells with 0-100 µg/ml C130^ox, immunoblot of cell lysates
[6] = biological target: CXCR-2 on stably expressing HEK 293 cells (UniProt P25025); assay: binding of fixed WT mini-YRS to CXCR2-293 cells with 0-100 µg/ml C130^ox, immunoblot of cell lysates
[7] = biological target: T2, CXCR-1 on stably expressing HEK 293 cells; assay: His6-tagged protein incubated with cells, washed, lysed, anti-His6 immunoblot with actin as loading control
[8] = biological target: CXCR-2 on stably expressing HEK 293 cells (UniProt P25025); assay: as above
[9] = biological target: T2, CXCR-1 on stably expressing HEK 293 cells; assay: competitive binding on CXCR-1 expressing HEK 293 cells; competitor WT mini-YRS at fixed concentration
[10] = biological target: CXCR-2 on stably expressing HEK 293 cells (UniProt P25025); assay: competitive binding on CXCR-2 expressing HEK 293 cells; competitor WT mini-YRS at fixed concentration
[11] = biological target: T2, CXCR-1 on stably expressing HEK 293 cells; assay: competitive binding on CXCR1-293 cells: fixed WT mini-YRS (competitor) with rising C130^ox, immunoblot of cell lysates
[12] = biological target: CXCR-2 on stably expressing HEK 293 cells (UniProt P25025); assay: competitive binding on CXCR2-293 cells: fixed WT mini-YRS (competitor) with rising C130^ox, immunoblot of cell lysates
[13] = biological target: T2, CXCR-1 on stably expressing HEK 293 cells; assay: receptor binding assay on CXCR-1 expressing HEK 293 cells
[14] = biological target: CXCR-2 on stably expressing HEK 293 cells (UniProt P25025); assay: receptor binding assay on CXCR-2 expressing HEK 293 cells

Measured: binding

B1: human T2-WRS (residues 94-471 of full-length tryptophanyl-tRNA synthetase) with C-terminal His6 tag (enzyme)
chain: SAKGIDYDKLIVRFGSSKIDKELINRIERATGQRPHHFLRRGIFFSHRDMNQVLDAYENKKPFYLYTGRGPSSEAMHVGHLIPFIFTKWLQDVFNVPLVIQMTDDEKYLWKDLTLDQAYSYAVENAKDIIACGFDINKTFIFSDLDYMGMSSGFYKNVVKIQKHVTFNQVKGIFGFTDSDCIGKISFPAIQAAPSFSNSFPQIFRDRTDIQCLIPCAIDQDPYFRMTRDVAPRIGYPKPALLHSTFFPALQGAQTKMSASDPNSSIFLTDTAKQIKTKVNKHAFSGGRDTIEEHRQFGGNCDVDVSFMYLTFFLEDDDKLEQIRKDYTSGAMLTGELKKALIEVLQPLIAEHQARRKEVTDEIVKEFMTPRKLSFDFQHHHHHH
binds: [1] | [2]

B2: wild-type (WT) human mini-YRS (N-terminal fragment of human tyrosyl-tRNA synthetase) (enzyme)
chain: MGDAPSPEEKLHLITRNLQEVLGEEKLKEILKERELKIYWGTATTGKPHVAYFVPMSKIADFLKAGCEVTILFADLHAYLDNMKAPWELLELRVSYYENVIKAMLESIGVPLEKLKFIKGTDYQLSKEYTLDVYRLSSVVTQHDSKKAGAEVVKQVEHPLLSGLLYPGLQALDEEYLKVDAQFGGIDQRKIFTFAEKYLPALGYSKRVHLMNPMVPGLTGSKMSSSEEESKIDLLDRKEDVKKKLKKAFCEPGNVENNGVLSFIKHVLFPLKSEFVILRDEKWGGNKTYTAYVDLEKDFAAEVVHPGDLKNSVEVALNKLLDPIREKFNTPALKKLASAAYPDPSKQKPMAKGPAKNSEPEEVI
binds: [3] | [4] | [5] | [6] | [7] | [8]

B3: C130^OX non-dissociating disulfide-linked dimer of T130C mini-YRS (enzyme)
chain: B2 chain with T130C
modifications: Cys 130 of the two subunits joined by a disulfide bond after I2 oxidation
binds: [9] | [10] | [11] | [12]

B4: non-associating monomeric Δ159-161 variant of mini-YRS (enzyme)
chain: MGDAPSPEEKLHLITRNLQEVLGEEKLKEILKERELKIYWGTATTGKPHVAYFVPMSKIADFLKAGCEVTILFADLHAYLDNMKAPWELLELRVSYYENVIKAMLESIGVPLEKLKFIKGTDYQLSKEYTLDVYRLSSVVTQHDSKKAGAEVVKQVEHSGLLYPGLQALDEEYLKVDAQFGGIDQRKIFTFAEKYLPALGYSKRVHLMNPMVPGLTGSKMSSSEEESKIDLLDRKEDVKKKLKKAFCEPGNVENNGVLSFIKHVLFPLKSEFVILRDEKWGGNKTYTAYVDLEKDFAAEVVHPGDLKNSVEVALNKLLDPIREKFNTPALKKLASAAYPDPSKQKPMAKGPAKNSEPEEVI
binds: [13] | [14] | [3] | [4] | [7] | [8]
